1 molecule from US9675591B2, “Methods for treating seizure disorders and pain” (THE REGENTS OF THE UNIVERSITY OF CALIFORNIA, priority 2013, dated 2017) can be followed below.

The structures appear in SMILES notation.

Format in all cases: in vivo
In data set [1] the test system is mice. Description: Acute toxicity, rotorod test in mice. The procedure:
Abnormal neurological status in mice following SKA-19 administration was evaluated with the rotorod test. When a normal mouse is placed on a rod 1 inch in diameter that rotates at a speed of 6 rpm, the mouse can maintain equilibrium for a long time. Inability of the mouse to stay on the rotating rod in three trials for 1 min is taken as an indication of motor impairment. […] Mice were placed on a horizontally oriented grid (consisting of parallel 1.5-mm diameter rods situated 1 cm apart), and the grid was inverted. Animals that fell from the grid within 10 s were scored as impaired.
For orientation: In the rotarod test animals must keep their balance on a rotating rod.

The nature of data set [2]: Acute toxicity, neurological status of rats (positional sense, muscle tone, gait and stance). To be noted: Sprague-Dawley, rat, in vivo, oral. The procedure:
(§1) Abnormal neurological status in rats was evaluated by the positional sense test, the muscle tone test, and the gait and stance test. Inability of the rat to perform normally in at least two of these tests is taken as an indication of some neurological deficit.

Data set [3] concerns rats. The description is as above. To be noted: 30 mg/kg i.p. The procedure: as §1
Data set [4] has as its system 6 Hz seizures. Description: 6 Hz seizure test, compounds given i.p. as solution. To be noted: Mus musculus, ip, 10 min, mice, values stated uncertain. The procedure: The mouse maximal electroshock (MES) and 6 Hz seizure models were used. Motor toxicity was assessed using a modification of the horizontal screen test. ED50 values in the seizure models and TD50 values in the toxicity test were determined by nonlinear fitting of dose-response curves. […] Drugs solutions were injected intraperitoneally 10 min prior to administration of the electrical stimulus in a volume of 10 ml/kg body weight.

Data set [5] is described as follows: Pharmacokinetics in Sprague-Dawley rats. To be noted: male, rat, plasma, intraperitoneal, 10 mg/kg i.p.

As for `Nc1nc2ccc(OC(F)(F)F)cc2s1` [riluzole, 2-amino-6-(trifluoromethoxy)benzothiazole, reference compound], the “mice with affected rotorod performance and righting reflexes” value in data set [1] (30 mg/kg i.p.) was 8 out of 8. Further, the mice that died in data set [1] (100 mg/kg i.p.) was 8 out of 8. The TD50 in data set [2] is 21.4 mg/kg. For the same molecule, in data set [3], the “animals with neurological deficits” value is given as 4 out of 4 and the deaths entry is listed as “killed one animal”. Besides, in data set [4], the ED50 turned out to be 16.4 mg/kg. Besides, in data set [5], the concentration at 2 h came to 4.1 ± 0.2 µM.

In general, TD50 refers to the 50% point of the dose-response relation for the toxic effect studied. Higher therefore signals harm only at a large dose. As a reminder, the ED50 is the dose at which the effect has come halfway, by size or by number of responders.
